{"source": "patent US20070180584", "system": "T1, Hahb-4 (nuclear extract proteins, induced by ABA or water stress) (Helianthus annuus)", "T1 sequence": "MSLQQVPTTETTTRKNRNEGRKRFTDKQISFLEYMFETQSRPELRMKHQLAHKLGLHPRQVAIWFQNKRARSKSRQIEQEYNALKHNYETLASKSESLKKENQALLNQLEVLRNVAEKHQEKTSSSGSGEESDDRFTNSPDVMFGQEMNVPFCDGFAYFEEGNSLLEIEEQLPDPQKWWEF", "experiment": "EMSA", "details": "nuclear extracts (30 ug) from control, ABA-treated and water-stressed seedlings; ABA and water stress induce specific binding, shifted bands A and B; protein in an extract; label: 32P (Klenow fill-in of 3' ends)", "note": "Construct, isoform or probe ends are uncertain for at least one entry. At least one result comes from cells or an extract, where the contact may be indirect. Tags and fusion partners may be left off the protein sequences shown.", "data": [{"sequence": "AATTCAGATCTCAATAATTGAGAG / GATCCTCTCAATTATTGAGATCTG [Hahb-4 target site oligonucleotide]", "values": [{"measurement": "binding result", "value": "binds"}]}]}
